Data as given in PubChem BioAssay AID1508597 (Cure First, 2020)
This is an unselected part of the about 2,100 reagents, under one of the conditions tested. 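Calls flag viability under 80% in either arm, not effects specific to rucaparib; the reference for percent is not stated.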 Unmarked entries are inactive. Not stated in the record: the 100% reference.

- Aim: 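Knock-downs altering ovarian cancer cell survival with or without PARP inhibitor rucaparib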 (primary screen)
- Cells: human ovarian carcinoma lines grown from tumours: OCI-P5x (papillary serous) and OCI-C5x (clear cell)
- Reagents: siRNA pool against human genes, 1.25 pmol siRNA per well
- Timing: 72 h or 96 h, depending on the cell culture
- Challenge: rucaparib 20 µM (about IC30) or vehicle, present until read-out
- Rucaparib or vehicle: Rucaparib
- Cell line: OCI-C5x (clear cell)
- Measurement: 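Luminescent ATP-based viability assay read 72 or 96 h after transfection, depending on culture, given as normalised percent viability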
- Scale: viability, normalised: higher = more viable cells remaining
- Call rule: 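Active when normalised viability falls below 80 percent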
- Meaning of the calls: active = viability under 80%; inactive = viability 80% or more

| gene knocked down | technical replicate | viability, normalised (%) |
| --- | --- | --- |
| SLC1A3 | 1 | 41.9 (active) |
| SLC1A3 | 2 | 45.4 (active) |
| SLC1A3 | 3 | 49.4 (active) |
| SFPQ (splicing factor proline and glutamine rich) | 1 | 46.4 (active) |
| SFPQ (splicing factor proline and glutamine rich) | 2 | 31.7 (active) |
| SFPQ (splicing factor proline and glutamine rich) | 3 | 50.6 (active) |
| SMAD1 (SMAD family member 1) | 1 | 47.8 (active) |
| SMAD1 (SMAD family member 1) | 2 | 45.1 (active) |
| SMAD1 (SMAD family member 1) | 3 | 50.5 (active) |
| AKT2 (AKT serine/threonine kinase 2) | 1 | 69.3 (active) |
| AKT2 (AKT serine/threonine kinase 2) | 2 | 64.7 (active) |
| AKT2 (AKT serine/threonine kinase 2) | 3 | 62.2 (active) |
| MAP2K5 (mitogen-activated protein kinase kinase 5) | 1 | 55.2 (active) |
| MAP2K5 (mitogen-activated protein kinase kinase 5) | 2 | 79.5 (active) |
| MAP2K5 (mitogen-activated protein kinase kinase 5) | 3 | 64.6 (active) |
| ETNK1 (ethanolamine kinase 1) | 1 | 86.6 |
| ETNK1 (ethanolamine kinase 1) | 2 | 46.5 (active) |
| ETNK1 (ethanolamine kinase 1) | 3 | 63 (active) |
| MED21 (mediator complex subunit 21) | 1 | 51.2 (active) |
| MED21 (mediator complex subunit 21) | 2 | 41.7 (active) |
| MED21 (mediator complex subunit 21) | 3 | 51.1 (active) |
| MIER3 (MIER family member 3) | 1 | 51.4 (active) |
| MIER3 (MIER family member 3) | 2 | 38.5 (active) |
| MIER3 (MIER family member 3) | 3 | 46.2 (active) |
| PIP5K1C (phosphatidylinositol-4-phosphate 5-kinase type 1 gamma) | 1 | 51.2 (active) |
| PIP5K1C (phosphatidylinositol-4-phosphate 5-kinase type 1 gamma) | 2 | 35.3 (active) |
| PIP5K1C (phosphatidylinositol-4-phosphate 5-kinase type 1 gamma) | 3 | 67.5 (active) |
| CDKL4 (cyclin dependent kinase like 4) | 1 | 52.9 (active) |
| CDKL4 (cyclin dependent kinase like 4) | 2 | 73.7 (active) |
| CDKL4 (cyclin dependent kinase like 4) | 3 | 48.5 (active) |

Records listed so far whose target name starts with E or e (3):
| gene knocked down | technical replicate | viability, normalised (%) |
| --- | --- | --- |
| ETNK1 (ethanolamine kinase 1) | 1 | 86.6 |
| ETNK1 (ethanolamine kinase 1) | 2 | 46.5 (active) |
| ETNK1 (ethanolamine kinase 1) | 3 | 63 (active) |

The listing continues:
| gene knocked down | technical replicate | viability, normalised (%) |
| --- | --- | --- |
| YEATS4 (YEATS domain containing 4) | 1 | 66.6 (active) |
| YEATS4 (YEATS domain containing 4) | 2 | 49.3 (active) |
| YEATS4 (YEATS domain containing 4) | 3 | 46.9 (active) |
| ALDH18A1 (aldehyde dehydrogenase 18 family member A1) | 1 | 39.2 (active) |
| ALDH18A1 (aldehyde dehydrogenase 18 family member A1) | 2 | 29.3 (active) |
| ALDH18A1 (aldehyde dehydrogenase 18 family member A1) | 3 | 40.2 (active) |
| SMARCC2 (SWI/SNF related BAF chromatin remodeling complex subunit C2) | 1 | 43.1 (active) |
| SMARCC2 (SWI/SNF related BAF chromatin remodeling complex subunit C2) | 2 | 44.8 (active) |
| SMARCC2 (SWI/SNF related BAF chromatin remodeling complex subunit C2) | 3 | 42.2 (active) |
| EPAS1 (endothelial PAS domain protein 1) | 1 | 64.7 (active) |
| EPAS1 (endothelial PAS domain protein 1) | 2 | 39.6 (active) |
| EPAS1 (endothelial PAS domain protein 1) | 3 | 50.2 (active) |
| ACVR2B (activin A receptor type 2B) | 1 | 46.7 (active) |
| ACVR2B (activin A receptor type 2B) | 2 | 34.9 (active) |
| ACVR2B (activin A receptor type 2B) | 3 | 38.1 (active) |
| COPS3 (COP9 signalosome subunit 3) | 1 | 62.7 (active) |
| COPS3 (COP9 signalosome subunit 3) | 2 | 74.2 (active) |
| COPS3 (COP9 signalosome subunit 3) | 3 | 66.4 (active) |
| ULK2 (unc-51 like autophagy activating kinase 2) | 1 | 33.4 (active) |
| ULK2 (unc-51 like autophagy activating kinase 2) | 2 | 40.1 (active) |
| ULK2 (unc-51 like autophagy activating kinase 2) | 3 | 43.6 (active) |
| WNT5A (Wnt family member 5A) | 1 | 56.7 (active) |
| WNT5A (Wnt family member 5A) | 2 | 58.5 (active) |
| WNT5A (Wnt family member 5A) | 3 | 51.2 (active) |
| CEBPG (CCAAT enhancer binding protein gamma) | 1 | 50.8 (active) |
| CEBPG (CCAAT enhancer binding protein gamma) | 2 | 47.9 (active) |
| CEBPG (CCAAT enhancer binding protein gamma) | 3 | 39.3 (active) |
| NOTCH3 (notch receptor 3) | 1 | 63.3 (active) |
| NOTCH3 (notch receptor 3) | 2 | 67.1 (active) |
| NOTCH3 (notch receptor 3) | 3 | 56 (active) |
| IRAK2 (interleukin 1 receptor associated kinase 2) | 1 | 69.3 (active) |
| IRAK2 (interleukin 1 receptor associated kinase 2) | 2 | 62.8 (active) |
| IRAK2 (interleukin 1 receptor associated kinase 2) | 3 | 60.1 (active) |
| RBBP5 | 1 | 41.1 (active) |
| RBBP5 | 2 | 48.1 (active) |
| RBBP5 | 3 | 44.4 (active) |
| CPS1 (carbamoyl-phosphate synthase 1) | 1 | 47.6 (active) |
| CPS1 (carbamoyl-phosphate synthase 1) | 2 | 78.3 (active) |
| CPS1 (carbamoyl-phosphate synthase 1) | 3 | 61.2 (active) |
| EYA3 (EYA transcriptional coactivator and phosphatase 3) | 1 | 51 (active) |
| EYA3 (EYA transcriptional coactivator and phosphatase 3) | 2 | 29.9 (active) |
| EYA3 (EYA transcriptional coactivator and phosphatase 3) | 3 | 28.1 (active) |
| RIPK1 (receptor interacting serine/threonine kinase 1) | 1 | 50.3 (active) |
| RIPK1 (receptor interacting serine/threonine kinase 1) | 2 | 41.6 (active) |
| RIPK1 (receptor interacting serine/threonine kinase 1) | 3 | 55.2 (active) |
